Test results published in the supplement of paper PMC8728848.
This is one part of the list.

Experiments:
Assay in all cases: glycan array binding signal (z-score within array); higher = stronger binding
Settings in all cases: glycan notation: IUPAC condensed, linker removed
Fuc(a1-2)Gal = target: Fuc(a1-2)Gal
In short: (§1)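 The Consortium for Functional Glycomics database supplied 3228 glycan arrays, of which those lacking an available protein sequence were dropped. The binding signal, a within-array Z-score, was averaged across arrays of the same protein sequence and across linkers. Negative scores can be read as non-binding.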

Fuc(a1-2)Gal(b1-3)GalNAc = target: Fuc(a1-2)Gal(b1-3)GalNAc
In short: as §1

[1] = target: Fuc(a1-2)Gal(b1-3)GalNAc(a1-3)[Fuc(a1-2)]Gal(b1-4)Glc
In short: as §1

[2] = target: Fuc(a1-2)Gal(b1-3)GalNAc(a1-3)[Fuc(a1-2)]Gal(b1-4)GlcNAc
In short: as §1

[3] = target: Fuc(a1-2)Gal(b1-3)GalNAc(b1-3)Gal
In short: as §1

[4] = target: Fuc(a1-2)Gal(b1-3)GalNAc(b1-3)Gal(a1-4)Gal(b1-4)Glc
In short: as §1

[5] = target: Fuc(a1-2)Gal(b1-3)GalNAc(b1-4)[Neu5Ac(a2-3)]Gal(b1-4)Glc
In short: as §1

Fuc(a1-2)Gal(b1-3)GlcNAc = target: Fuc(a1-2)Gal(b1-3)GlcNAc
In short: as §1

[6] = target: Fuc(a1-2)Gal(b1-3)GlcNAc(b1-2)Man(a1-3)[Fuc(a1-2)Gal(b1-3)GlcNAc(b1-2)Man(a1-6)]Man(b1-4)GlcNAc(b1-4)GlcNAc
In short: as §1

[7] = target: Fuc(a1-2)Gal(b1-3)GlcNAc(b1-2)Man(a1-3)[Fuc(a1-2)Gal(b1-3)GlcNAc(b1-2)Man(a1-6)]Man(b1-4)GlcNAc(b1-4)[Fuc(a1-6)]GlcNAc
In short: as §1

[8] = target: Fuc(a1-2)Gal(b1-3)GlcNAc(b1-3)Gal(b1-4)Glc
In short: as §1

[9] = target: Fuc(a1-2)Gal(b1-3)GlcNAc(b1-3)GalNAc
In short: as §1

[10] = target: Fuc(a1-2)Gal(b1-3)GlcNAc(b1-3)[Fuc(a1-3)[Gal(b1-4)]GlcNAc(b1-6)]Gal(b1-4)Glc
In short: as §1

[11] = target: Fuc(a1-2)Gal(b1-3)GlcNAc(b1-3)[Gal(b1-4)GlcNAc(b1-6)]Gal(b1-4)Glc
In short: as §1

[12] = target: Fuc(a1-2)Gal(b1-3)[Fuc(a1-4)]GlcNAc
In short: as §1

[13] = target: Fuc(a1-2)Gal(b1-3)[Fuc(a1-4)]GlcNAc(b1-2)Man(a1-3)[Fuc(a1-2)Gal(b1-3)[Fuc(a1-4)]GlcNAc(b1-2)Man(a1-6)]Man(b1-4)GlcNAc(b1-4)GlcNAc
In short: as §1

[14] = target: Fuc(a1-2)Gal(b1-3)[Fuc(a1-4)]GlcNAc(b1-3)[Fuc(a1-3)[Gal(b1-4)]GlcNAc(b1-6)]Gal(b1-4)Glc
In short: as §1

[15] = target: Fuc(a1-2)Gal(b1-3)[Fuc(a1-4)]GlcNAc(b1-3)[Gal(b1-4)GlcNAc(b1-6)]Gal(b1-4)Glc
In short: as §1

Fuc(a1-2)Gal(b1-4)Glc = target: Fuc(a1-2)Gal(b1-4)Glc
In short: as §1

Fuc(a1-2)Gal(b1-4)Glc6S = target: Fuc(a1-2)Gal(b1-4)Glc6S
In short: as §1

Fuc(a1-2)Gal(b1-4)GlcNAc = target: Fuc(a1-2)Gal(b1-4)GlcNAc
In short: as §1

[16] = target: Fuc(a1-2)Gal(b1-4)GlcNAc(b1-2)Man(a1-3)[Fuc(a1-2)Gal(b1-4)GlcNAc(b1-2)Man(a1-6)]Man(b1-4)GlcNAc(b1-4)GlcNAc
In short: as §1

[17] = target: Fuc(a1-2)Gal(b1-4)GlcNAc(b1-2)Man(a1-3)[Fuc(a1-2)Gal(b1-4)GlcNAc(b1-2)Man(a1-6)]Man(b1-4)GlcNAc(b1-4)[Fuc(a1-6)]GlcNAc
In short: as §1

[18] = target: Fuc(a1-2)Gal(b1-4)GlcNAc(b1-2)[Fuc(a1-2)Gal(b1-4)GlcNAc(b1-4)]Man(a1-3)[Fuc(a1-2)Gal(b1-4)GlcNAc(b1-2)Man(a1-6)]Man(b1-4)GlcNAc(b1-4)GlcNAc
In short: as §1

[19] = target: Fuc(a1-2)Gal(b1-4)GlcNAc(b1-3)Gal(b1-4)GlcNAc
In short: as §1

[20] = target: Fuc(a1-2)Gal(b1-4)GlcNAc(b1-3)Gal(b1-4)GlcNAc(b1-3)Gal(b1-4)GlcNAc
In short: as §1

[21] = target: Fuc(a1-2)Gal(b1-4)GlcNAc(b1-3)GalNAc
In short: as §1

[22] = target: Fuc(a1-2)Gal(b1-4)GlcNAc6S
In short: as §1

[23] = target: Fuc(a1-2)Gal(b1-4)[Fuc(a1-3)]GlcNAc
In short: as §1

[24] = target: Fuc(a1-2)Gal(b1-4)[Fuc(a1-3)]GlcNAc(b1-2)Man(a1-3)[Fuc(a1-2)Gal(b1-4)[Fuc(a1-3)]GlcNAc(b1-2)Man(a1-6)]Man(b1-4)GlcNAc(b1-4)GlcNAc
In short: as §1

[25] = target: Fuc(a1-2)Gal(b1-4)[Fuc(a1-3)]GlcNAc(b1-2)[Fuc(a1-2)Gal(b1-4)[Fuc(a1-3)]GlcNAc(b1-4)]Man(a1-3)[Fuc(a1-2)Gal(b1-4)[Fuc(a1-3)]GlcNAc(b1-2)Man(a1-6)]Man(b1-4)GlcNAc(b1-4)GlcNAc
In short: as §1

[26] = target: Fuc(a1-2)Gal(b1-4)[Fuc(a1-3)]GlcNAc(b1-3)Gal(b1-4)[Fuc(a1-3)]GlcNAc
In short: as §1

[27] = target: Fuc(a1-2)Gal(b1-4)[Fuc(a1-3)]GlcNAc(b1-3)Gal(b1-4)[Fuc(a1-3)]GlcNAc(b1-3)Gal(b1-4)[Fuc(a1-3)]GlcNAc
In short: as §1

[28] = target: Fuc(a1-2)Gal(b1-4)[Fuc(a1-3)]GlcNAc(b1-3)GalNAc
In short: as §1

Fuc(a1-2)Gal6S(b1-4)Glc = target: Fuc(a1-2)Gal6S(b1-4)Glc
In short: as §1

[29] = target: Fuc(a1-2)Gal6S(b1-4)Glc6S
In short: as §1

[30] = target: Fuc(a1-2)Gal6S(b1-4)GlcNAc
In short: as §1

B1: rPitB (Streptococcus pneumoniae), A0A0I7U739 (protein)
chain: MSEIEIINAKKIYHDVPVIENLNITIPKGSLFTLLGASGCGKTTLLRMIAGFNSIKDGEFYFDDTKINNMEPSKRNIGLVFQNYAIFPHLTVRDNVAFGLMQKKVPKEELIQQTNKYLELMQIAQYAD
Fuc(a1-2)Gal
  glycan array binding signal (z-score): -0.805
Fuc(a1-2)Gal(b1-3)GalNAc
  glycan array binding signal (z-score): 0.167
[1]
  glycan array binding signal (z-score): 0.302
[2]
  glycan array binding signal (z-score): -0.708
[3]
  glycan array binding signal (z-score): 0.08
[4]
  glycan array binding signal (z-score): 0.358
[5]
  glycan array binding signal (z-score): -0.128
Fuc(a1-2)Gal(b1-3)GlcNAc
  glycan array binding signal (z-score): -0.794
[6]
  glycan array binding signal (z-score): 1.04
[7]
  glycan array binding signal (z-score): 0.197
[8]
  glycan array binding signal (z-score): -0.995
[9]
  glycan array binding signal (z-score): -0.687
[10]
  glycan array binding signal (z-score): -0.544
[11]
  glycan array binding signal (z-score): -0.397
[12]
  glycan array binding signal (z-score): -0.496
[13]
  glycan array binding signal (z-score): 0.882
[14]
  glycan array binding signal (z-score): 0.227
[15]
  glycan array binding signal (z-score): 0.281
Fuc(a1-2)Gal(b1-4)Glc
  glycan array binding signal (z-score): 0.199
Fuc(a1-2)Gal(b1-4)Glc6S
  glycan array binding signal (z-score): 0.021
Fuc(a1-2)Gal(b1-4)GlcNAc
  glycan array binding signal (z-score): 0.65
[16]
  glycan array binding signal (z-score): 0.433
[17]
  glycan array binding signal (z-score): -0.083
[18]
  glycan array binding signal (z-score): 0.316
[19]
  glycan array binding signal (z-score): -0.799
[20]
  glycan array binding signal (z-score): -0.283
[21]
  glycan array binding signal (z-score): 1.03
[22]
  glycan array binding signal (z-score): 0.223
[23]
  glycan array binding signal (z-score): -0.11
[24]
  glycan array binding signal (z-score): 0.584
[25]
  glycan array binding signal (z-score): 1.33
[26]
  glycan array binding signal (z-score): 0.882
[27]
  glycan array binding signal (z-score): 0.171
[28]
  glycan array binding signal (z-score): 1.42
Fuc(a1-2)Gal6S(b1-4)Glc
  glycan array binding signal (z-score): -0.271
[29]
  glycan array binding signal (z-score): -0.014
[30]
  glycan array binding signal (z-score): -0.041
